Among the data in paper PMC10085706 are binding values, retold here.

These are yes or no findings as the source states them, for the method shown. Some results given as binding are weak or reduced against the parent protein; the word gives no strength.

In the assay the target is T1, ribosomal protein uL16 of the Cutibacterium acnes 50S subunit (Cutibacterium acnes (endogenous in ATCC 11827 cells)) (UniProt Q6A6N3).
T1 sequence: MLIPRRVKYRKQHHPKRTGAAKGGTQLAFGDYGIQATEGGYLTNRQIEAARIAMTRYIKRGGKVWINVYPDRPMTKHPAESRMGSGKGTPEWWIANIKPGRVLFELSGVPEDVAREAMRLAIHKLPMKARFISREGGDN
Kind of assay: cryo-EM structure; re-associated C. acnes 70S ribosomes (0.125 uM) with mRNA, P-site tRNAi-fMet and 200 uM sarecycline; 20 mM Tris-HCl pH 7.4, 60 mM NH4Cl, 10 mM MgCl2; 2.8 Å overall, local refinement 30S body 2.8 Å, 50S 2.6 Å; both purified.

B1: ribosomal protein bL25 of the Cutibacterium acnes 50S subunit (protein, UniProt Q6AAC8 1-205)
chain: MADIIHLKAEQRTEFGKGAARRIRRDDKVPAVMYGHDHDPIHVTLDGHATLLALRTENPLLSIEIEGQKPMLALPKDVQRDVLKGFVRHVDLLTVRRGEKVDVNVALRITGESAPGTIAMTEFNEIEVQADLLNIPEVIEIDVTGLEAGTTIYLGDLKLPEGTSLLGDAEDVAATVAFPETEPVEDEESAGEDAQGESEEKAAKE
For the molecule B1, the binding entry is on record as “binds”.
